# “And” between values parts separate entries of the source, which are not always exact repeats. Equal entries are not always repeated. About 5,400 (1.8%) of roughly 300,000 compounds were called active. This list was built around the results that the source calls inconclusive (neither active nor inactive); the mix of calls is not that of the screen. The call rests on the fitted dose curve; tested in HEK293 cells. Where the call is inconclusive, the potency comes from a doubtful curve fit.
# Assay: qHTS for inhibitors of binding or entry into cells for Marburg Virus
# Conditions: Marburg virus pseudotyped entry inhibition, cell reporter; activity change, negative = inhibition: at 37.8 µM (top of the series) unless noted
# On the % scale 0 is the no-effect control and ±100 the full control effect; potency means the concentration at half of the fitted maximal effect.
Structure (SMILES),Potency,"activity change, negative = inhibition"
COc1ccc(/C=C/C2=CC(C)(C)NC(=S)N2)c(OC)c1,"inconclusive: 10 µM [inhibitor, partial curve, poor fit]",–
O=C(Nc1ccc(O)cc1)c1cc(S(=O)(=O)N2CCCC2)ccc1Cl,"inconclusive: 35.5 µM [inhibitor, single point]",–
CS(=O)(=O)N1CCN(c2ccccc2F)CC1,"inconclusive: 13 µM [activator, partial curve, poor fit]",–
CCOc1cc(/C=N/NC(N)=O)cc(Br)c1OCC(=O)Nc1ccccc1C,active: 11.2 µM,–
Cc1ccc(-c2cc(-c3ccc(Cl)cc3)c(C#N)c(N)n2)o1,"inconclusive: 2.51 µM [inhibitor, full curve, poor fit]",–
COc1ccc(C(C(=O)NC2CCCCC2)N(C(=O)c2snc(C(N)=O)c2N)c2ccc(OC)cc2OC)cc1 (stereo not given),"inconclusive: 10 µM [inhibitor, partial curve, poor fit]",–
COc1ccc(C2C(=O)NN=C2C)cc1 (stereo not given),"inconclusive: 3.55 µM [activator, partial curve, poor fit]",–
COc1ccc(NC(=S)NN2CCOCC2)cc1OC,"inconclusive: 0.251 µM [inhibitor, full curve, poor fit]",–
Cc1ccc(C(=O)Nc2ccc(OCc3ccccc3)cc2)s1,"inconclusive: 31.6 µM [inhibitor, single point]",–
CCOc1ccc(Nc2nc(-c3sc(N)nc3C)cs2)cc1,"inconclusive: 3.98 µM [inhibitor, partial curve, poor fit]",–
COc1ccc(-c2nc3ccc(C(=O)NCC(OC)OC)cc3nc2-c2ccc(OC)cc2)cc1,"inconclusive: 35.5 µM [inhibitor, single point]",–
COc1ccc(Cn2nnnc2CN(Cc2cc3cccc(C)c3[nH]c2=O)C2CCCC2)cc1,"inconclusive: 25.9 µM [inhibitor, partial curve, poor fit]",–
O=C(Nc1cccc(C(F)(F)F)c1)c1csc(-c2ccncc2)n1,"inconclusive: 35.5 µM [inhibitor, single point]",–
Cc1cccc(N=C2N=C(N)c3ccccc32)c1,"inconclusive: 29.1 µM [inhibitor, single point]",–
Nc1ccccc1Nc1cc(-c2ccccc2)nn1-c1cccc(Cl)c1,"inconclusive: 11.2 µM [inhibitor, partial curve, poor fit]",–
O=C(COc1ccccc1)Nc1ccc(OCc2cc(=O)n3ccsc3n2)cc1,–,inactive: 9.28% [at 46.1 µM]
O=C(Nc1ccc(N2CCN(C(=O)c3cccs3)CC2)cc1)c1cccc(F)c1,"inconclusive: 3.55 µM [inhibitor, partial curve, poor fit]",–
CCOC(=O)Nc1ccc2c(c1)N(C(=O)CN(CC)CC)c1ccccc1C=C2,"inconclusive: 20.6 µM [inhibitor, single point]",–
CCOc1ccc(C(=O)Nc2ccc(S(=O)(=O)N(Cc3ccccc3)c3ccccc3)cc2)cc1,"inconclusive: 6.31 µM [inhibitor, partial curve, poor fit]",–
O=C(c1ccco1)N1CCN(c2ncnc3sc4c(c23)CCC4)CC1,–,inactive: -5.43%

# In a second layout: results already given.
Structure (SMILES)	Potency	activity change, negative = inhibition
CCOc1cc(/C=N/NC(N)=O)cc(Br)c1OCC(=O)Nc1ccccc1C	active: 11.2 µM	–
Cc1ccc(-c2cc(-c3ccc(Cl)cc3)c(C#N)c(N)n2)o1	inconclusive: 2.51 µM [inhibitor, full curve, poor fit]	–
COc1ccc(C(C(=O)NC2CCCCC2)N(C(=O)c2snc(C(N)=O)c2N)c2ccc(OC)cc2OC)cc1 (stereo not given)	inconclusive: 10 µM [inhibitor, partial curve, poor fit]	–

# Remaining list, next part.

Structure (SMILES),Potency,"activity change, negative = inhibition"
C=CCNc1nc(-c2ccccn2)nnc1-c1ccccc1,"inconclusive: 35.5 µM [inhibitor, single point]",–
CC(CNC(=O)Cn1ncc2c3ccccc3n(Cc3cccc(Cl)c3)c2c1=O)c1ccccc1 (stereo not given),–,inactive: -31.8% [at 46.1 µM]
COC(=O)[C@H](C)NC(=O)c1cc2c(cn1)[nH]c1ccccc12,–,inactive: 20.6% [at 46.1 µM]
COCCNC(=O)CSc1nc(-c2ccc(F)cc2)[nH]c1-c1ccc(Cl)cc1,"inconclusive: 14.1 µM [inhibitor, single point]",–
CCC(c1nnnn1Cc1ccc(F)cc1)N1CCN(C2CCCCC2)CC1 (stereo not given),active: 12.6 µM,–
CCOC(=O)c1c(NC(=O)CSc2cn(CCNC(=O)c3ccc(OCC)cc3)c3ccccc23)sc2c1CCCC2,"inconclusive: 35.5 µM [inhibitor, single point]",–
O=C1CC(=C(c2ccccc2)c2ccccc2)C(=O)N1CCCCN1CCN(c2ccccc2)CC1,"inconclusive: 12.6 µM [inhibitor, partial curve, poor fit]",–
CN(/N=C/c1ccncc1)C1=NCCN1,"inconclusive: 0.708 µM [activator, partial curve, poor fit]",–
Cc1ccc(C)c(N2CCN(c3ncccc3[N+](=O)[O-])CC2)c1,active: 2.51 µM,–
COc1ccc(C)cc1NC(=O)C(Sc1nnc(Nc2cc(C)ccc2OC)s1)c1ccccc1 (stereo not given),"inconclusive: 35.5 µM [inhibitor, partial curve, poor fit]",–
O=C(NNC(=S)NC(=O)C12CC3CC(CC(C3)C1)C2)c1ccncc1,–,inactive: -54.4%
C/C(CC(=O)Nc1ccc2ccccc2c1)=N\NC(=O)c1cnccn1,–,inactive: 13.6%
CC1(C)CC(=O)C(C=NCCN2CCN(CC(=O)Nc3ccc(Cl)cc3)CC2)=C(O)C1,–,inactive: -11.6%
CCOC(=O)c1c(NC(=O)Nc2ccc(Cl)cc2)sc(C)c1C,"inconclusive: 2.24 µM [inhibitor, partial curve, poor fit]",–
COc1ccc(NC(=O)NN(C(=O)c2ccccc2)C(C)(C)C)cc1,"inconclusive: 35.5 µM [activator, single point]",–
Cc1cc(NC(=O)c2ccc(C(C)(C)C)cc2)no1,"inconclusive: 1.78 µM [activator, partial curve, poor fit]",–
CC(C)CC(=O)OC1C(N2CCOCC2)c2c(ccc(/C=C/C(=O)N3CCOCC3)c2O)OC1(C)C (stereo not given),"inactive and inconclusive: 5.01 µM [inhibitor, full curve]",–
c1ccc(CNc2nc(NCc3ccccc3)c3ccccc3n2)cc1,"inconclusive: 7.08 µM [inhibitor, partial curve, poor fit]",–
Cc1cccn2c(=O)c3cc(C(=O)N4CCN(C(=O)c5ccco5)CC4)n(C)c3nc12,"inconclusive: 3.16 µM [inhibitor, single point]",–
CCOC(=O)c1c(N)sc(C(=O)Nc2ccc3c(c2)OCO3)c1C,"inconclusive: 5.62 µM [inhibitor, full curve, poor fit]",–
